# Measurements taken from PubChem BioAssay AID652054 (National Center for Advancing Translational Sciences (NCATS), 2013).
# By UniProt entry, the sequences of proteins in these tests, tags left out.
# UniProt P35462, whole entry, looked up: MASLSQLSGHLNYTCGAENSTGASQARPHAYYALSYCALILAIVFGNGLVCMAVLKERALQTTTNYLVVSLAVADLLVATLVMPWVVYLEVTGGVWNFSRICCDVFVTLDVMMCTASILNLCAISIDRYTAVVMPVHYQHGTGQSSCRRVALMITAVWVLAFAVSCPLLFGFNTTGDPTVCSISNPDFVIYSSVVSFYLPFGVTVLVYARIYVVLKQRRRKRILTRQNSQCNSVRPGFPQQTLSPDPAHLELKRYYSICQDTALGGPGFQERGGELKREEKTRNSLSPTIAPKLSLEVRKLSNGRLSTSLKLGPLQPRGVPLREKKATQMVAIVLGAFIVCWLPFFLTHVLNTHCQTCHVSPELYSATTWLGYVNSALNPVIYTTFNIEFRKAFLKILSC
# Out of some 360,000 compounds screened, about 9,100 (2.5%) were called active. Inconclusive results, whose numbers are uncertain, are shown with a selection of clear calls. Cut-off read from the data, not from the text of the source: active = max response below about -50%; inconclusive = no clear call, values can overlap the other calls; inactive = above that.
# Molecular target: D(3) dopamine receptor (Homo sapiens) (UniProt P35462)
# Test: qHTS of D3 Dopamine Receptor Antagonist: qHTS
# Conditions: D3R cells, DiscoveRx beta-arrestin luminescence, antagonist mode; hits give low values
# Method in brief: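 Cells plated overnight at 1500 cells/well, then exposed to library compounds with dopamine controls for 90 minutes at 37 degrees C. DiscoveRx reagent added for 30–60 minutes at room temperature; luminescence read, quantitative HTS format.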
# % is set by controls: 0 for no effect and ±100 for the full control effect.
row,SMILES,"max response, negative = inhibition"
1,CC1(C)CC(=O)CC(C2(O)C(=O)N(Cc3ccccc3)c3ccccc32)O1 (stereo not given),inconclusive: -40.5%
2,CCNc1cccc2c1C(=O)N(C)C2=O,inactive: 3.91%
3,COc1ccccc1-n1c(SCC(N)=O)nc2c(c1=O)SCC2,inconclusive: -41.6%
4,Fc1ccc(-[n+]2nc(Nc3ccccc3)sc2-c2c3ccccc3cc3ccccc23)cc1,active: -63%
5,O=C(NCc1ccc(F)cc1)C(c1ccc(Cl)cc1)N(C(=O)c1csnn1)C1CC1 (stereo not given),inactive: 5.97%
6,CC(C)CCNC(=O)NC(=O)COC(=O)/C=C/c1cnc2ccccc2n1,inconclusive: -46.6%
7,COc1ccc(-c2cc(C(=O)NCC(c3ccccc3)N(C)C)c3ccccc3n2)cc1OC (stereo not given),inconclusive: -48.1%
8,CCC(C)[C@H]1CNC(=O)C(=O)N1CCc1cccc(F)c1 (stereo not given in full),inconclusive: -46.5%
9,O=C(Nc1nccs1)C1CCCN1S(=O)(=O)c1cccc2cccnc12 (stereo not given),active: -56.6%
10,Cc1ccc(C(=O)N/C(=C\c2cccs2)C(=O)NCCCN2CCOCC2)cc1,inconclusive: -31.4%
11,Cc1ccc(Cn2cc(CN3CC(N4CCSCC4)CS3(=O)=O)nn2)cc1 (stereo not given),inactive: 15.2%
12,Cc1sc2ncnc(OCC(=O)N3CC(=O)Nc4ccccc43)c2c1C,inactive: 2.74%
13,Cc1cc(N=Cc2c(O)n(-c3cccc(Cl)c3)c(=O)c3ccccc23)no1,inactive: 12.9%
14,CCC(C)[C@H](Nc1nc(-c2ccccc2)nc2c1oc1ccccc12)C(=O)O (stereo not given in full),inconclusive: -32.1%
15,CCOC(=O)c1cnn(CCOC(=O)c2cccs2)c1NC(=O)c1cccs1,inconclusive: -30.5%
16,COC(=O)c1sc(=S)n(-c2ccc(Cl)cc2)c1C,inconclusive: -47.2%
17,CN(C)CC/C=C1/c2ccc(F)cc2Sc2ccc(Cl)cc21,active: -83.9%
18,Cc1ccc2cccc(N=Cc3c(C)[nH]n(-c4ccccc4)c3=O)c2n1,active: -98.7%
19,Cc1ccc(NC(=O)C2CCN(S(=O)(=O)c3cccc(C(F)(F)F)c3)CC2)nc1,inactive: -20.2%
20,Cn1nnc2c[n+](CC(=O)c3ccc4ccccc4c3)cc(Br)c21,active: -52.9%
21,Cc1nc(C2CCCCC2)c(-c2ccccc2)c(N2CCOC2=O)c1C,inconclusive: -34.5%
22,C=C1C(=O)[C@@]23[C@H](O)C[C@@H]4C(C)(C)CC[C@H](O)[C@@]4(C)[C@@H]2CC[C@@H]1[C@H]3O,active: -56.5%
23,CCOc1cccc(CN2CCC(n3nccc3NC(=O)CCCc3ccccc3)CC2)c1,inconclusive: -33.1%
24,CCC(=O)Nc1cc(C(=O)NCC2CCCN2CC)c(OC)cc1N(C)C (stereo not given),active: -91.3%
25,COc1ccccc1N(C(=O)c1ccco1)C(C(=O)NC1CCCC1)c1cccnc1 (stereo not given),inconclusive: -32.6%
26,COc1cccc(C(=O)CC(=O)C(=O)Nc2cc(OC)ccc2OC)c1,inactive: -18.8%
27,O=C(CSc1nc2ccccc2s1)NCc1cc([N+](=O)[O-])ccc1O,inconclusive: -44.3%
28,COc1ccc(/C=N/n2cc(-c3ccccc3)nc2N)cc1,inconclusive: -31.5%

# 3 entries from above, sorted by number of heavy atoms, rising.
row,SMILES,"max response, negative = inhibition"
28,COc1ccc(/C=N/n2cc(-c3ccccc3)nc2N)cc1,inconclusive: -31.5%
9,O=C(Nc1nccs1)C1CCCN1S(=O)(=O)c1cccc2cccnc12 (stereo not given),active: -56.6%
15,CCOC(=O)c1cnn(CCOC(=O)c2cccs2)c1NC(=O)c1cccs1,inconclusive: -30.5%

# (further entries)

row,SMILES,"max response, negative = inhibition"
1,O=c1c2cc3c(cc2[nH]c(=S)n1C1CCN(Cc2ccccc2)CC1)OCO3,inconclusive: -41.4%
2,c1ccc(OCCCCN2CCOCC2)cc1,inconclusive: -32.5%
3,O=C(COC(=O)CN1C(=O)C2CCCCC2C1=O)NNC(=O)c1ccc(Cl)cc1 (stereo not given),active: -74.7%
4,COc1ccc(OC)c2c1C(=O)C(Cl)=C(Cl)C2=O,active: -126%
5,O=c1c(Cl)c(Cl)cnn1Cc1nnc(-c2ccc(Cl)cc2)o1,active: -87.2%
6,COc1cccc(C(=O)N/N=C/C(Br)=C/c2ccccc2)c1,inactive: 3.33%
7,N#Cc1ccc(-c2nc3c(Cl)cc(C(F)(F)F)cn3c2Cc2ccccc2C(F)(F)F)cc1,inactive: 8.9%
8,CCOC(=O)C1CCN(c2ncnc3c2c(-c2ccccc2)cn3-c2ccccc2)CC1,inactive: 75.5%
9,COc1ccccc1C/C(N)=N/OC(=O)COc1cccc(C)c1C,inconclusive: -31.2%
10,CCN1C(=O)CC(C(=O)O)SC1=Nc1ccc(OC)cc1 (stereo not given),inconclusive: -38.5%
11,CCCCN(C(=O)CNC(=O)c1ccco1)C(C(=O)NC1CCCC1)c1ccc(OC)cc1 (stereo not given),inconclusive: -44.6%
12,O=C(CSc1nnc(CNC(=O)c2ccc(F)cc2)o1)NCc1ccccc1Cl,inactive: -16.8%
13,O=C(Cc1ccccn1)c1ccc(Cl)cc1,inconclusive: -48.4%
14,Cc1ccc(S(=O)(=O)C/N=C(/NC(=S)N(c2ccccc2)c2ccccc2)c2ccccc2)cc1,active: -55.6%
15,Cc1c(C(=O)N(C)C)sc2nc(-c3ccccn3)[nH]c(=O)c12,active: -57.1%
16,O=C(C[n+]1cc(-c2ccc(F)cc2)n2c1CCC2)Nc1nc(-c2ccccc2)cs1,inactive: -11.4%
17,COc1ccc(C/C(C)=N/NC(=O)C2COc3ccccc3O2)cc1 (stereo not given),inactive: -25.4%
18,COc1ccc(-c2nn(-c3ccccc3)cc2/C=N/Nc2ccc(S(N)(=O)=O)cc2[N+](=O)[O-])cc1OC,inconclusive: -32.5%
19,CC(=O)Nc1ccc(NC2=C(Cl)C(=O)c3ccccc3C2=O)cc1,active: -102%
20,COc1ccccc1C(=O)NC(C)c1nc2ccccc2[nH]1 (stereo not given),inconclusive: -36.5%
21,CCC1CCCCN1C(=O)C1CC(c2cc(Cl)c(OC)cc2OC)=NO1 (stereo not given),inactive: 0%
22,O=C(NCc1cc(Cl)cc(Cl)c1)c1ccc2sc([C@H]3C[C@H](O)[C@@H](CO)O3)nc2c1,inactive: -1.17%
23,Cc1cc(Br)cn2c(Cc3ccccc3)c(C3CCCCC3)nc12,inactive: -26.4%
24,COc1ccc(C2c3[nH]c4ccccc4c3CCN2C(=O)c2ccccc2C(C)=O)c(F)c1 (stereo not given),inconclusive: -44.4%
25,CC(=O)c1cccc(NC(=O)CSc2n[nH]c(-c3ccncc3)n2)c1,inactive: 8.04%
26,CCN1C(=O)/C(=C/c2nc3ccccc3c(=O)n2-c2ccccc2)c2ccccc21,inconclusive: -36.4%
27,Cc1ccc(C(OCC(O)CNC(CO)C(O)c2ccc([N+](=O)[O-])cc2)c2ccccc2)cc1 (stereo not given),inconclusive: -46.4%
